Results as given in the supplement of paper PMC6411743.
± gives the standard deviation of the averaged measurements. The entries are a selection whose mix differs from that of the whole data set.

Protein sequences, listed by entry. Tags and fused reporters are not part of them. Lines headed by an entry give the natural chain unless they say otherwise; changes in a name come on top.
UniProt Q96GX9: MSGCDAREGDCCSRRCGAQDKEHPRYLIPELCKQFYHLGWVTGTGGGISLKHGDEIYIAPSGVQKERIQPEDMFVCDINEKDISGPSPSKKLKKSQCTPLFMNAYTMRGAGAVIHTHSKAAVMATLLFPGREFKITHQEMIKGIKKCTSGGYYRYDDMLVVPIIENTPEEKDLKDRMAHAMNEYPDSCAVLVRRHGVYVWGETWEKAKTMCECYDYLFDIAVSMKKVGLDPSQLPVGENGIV
UniProt Q96CU9: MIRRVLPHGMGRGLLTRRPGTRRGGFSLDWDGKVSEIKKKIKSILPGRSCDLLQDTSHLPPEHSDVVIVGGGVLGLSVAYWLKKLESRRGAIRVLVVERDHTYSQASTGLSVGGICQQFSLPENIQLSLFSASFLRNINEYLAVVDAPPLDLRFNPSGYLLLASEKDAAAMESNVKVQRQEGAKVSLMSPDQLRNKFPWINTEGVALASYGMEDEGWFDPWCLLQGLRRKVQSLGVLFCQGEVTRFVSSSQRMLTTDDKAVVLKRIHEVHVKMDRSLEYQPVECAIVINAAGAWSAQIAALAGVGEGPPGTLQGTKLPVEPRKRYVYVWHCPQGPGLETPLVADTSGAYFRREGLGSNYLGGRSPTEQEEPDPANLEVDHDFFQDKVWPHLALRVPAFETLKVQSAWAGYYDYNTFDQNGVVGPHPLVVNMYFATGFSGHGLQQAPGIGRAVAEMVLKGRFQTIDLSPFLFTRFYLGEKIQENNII
UniProt Q96CS3: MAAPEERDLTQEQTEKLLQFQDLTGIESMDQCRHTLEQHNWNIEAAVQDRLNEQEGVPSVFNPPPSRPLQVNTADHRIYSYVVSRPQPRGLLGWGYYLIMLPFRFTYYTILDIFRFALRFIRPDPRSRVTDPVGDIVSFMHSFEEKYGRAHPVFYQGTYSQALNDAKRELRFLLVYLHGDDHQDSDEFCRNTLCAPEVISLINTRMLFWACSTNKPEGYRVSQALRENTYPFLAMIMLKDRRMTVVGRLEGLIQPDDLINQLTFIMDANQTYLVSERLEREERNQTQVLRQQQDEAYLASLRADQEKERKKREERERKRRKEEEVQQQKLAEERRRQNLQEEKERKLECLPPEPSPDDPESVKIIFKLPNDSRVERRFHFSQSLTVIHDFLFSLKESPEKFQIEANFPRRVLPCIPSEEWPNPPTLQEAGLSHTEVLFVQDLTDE
UniProt Q96SD1, whole entry: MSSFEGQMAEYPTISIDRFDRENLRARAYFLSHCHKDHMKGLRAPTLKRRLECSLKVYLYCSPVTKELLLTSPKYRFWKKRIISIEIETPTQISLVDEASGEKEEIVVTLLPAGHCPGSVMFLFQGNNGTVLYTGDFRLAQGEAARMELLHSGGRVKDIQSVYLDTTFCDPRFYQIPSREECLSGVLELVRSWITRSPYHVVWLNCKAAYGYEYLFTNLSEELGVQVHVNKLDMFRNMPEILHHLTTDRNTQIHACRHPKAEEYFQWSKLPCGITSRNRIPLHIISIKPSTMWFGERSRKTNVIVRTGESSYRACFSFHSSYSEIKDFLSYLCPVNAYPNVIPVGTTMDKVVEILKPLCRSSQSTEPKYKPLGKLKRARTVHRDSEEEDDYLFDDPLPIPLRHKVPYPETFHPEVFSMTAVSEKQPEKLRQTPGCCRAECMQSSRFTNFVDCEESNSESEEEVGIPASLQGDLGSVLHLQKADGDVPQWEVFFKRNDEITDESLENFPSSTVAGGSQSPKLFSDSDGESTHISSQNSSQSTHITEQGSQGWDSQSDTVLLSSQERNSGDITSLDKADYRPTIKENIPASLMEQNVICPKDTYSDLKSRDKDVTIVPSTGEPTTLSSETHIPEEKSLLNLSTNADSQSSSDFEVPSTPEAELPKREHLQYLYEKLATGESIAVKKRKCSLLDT
UniProt Q96G03: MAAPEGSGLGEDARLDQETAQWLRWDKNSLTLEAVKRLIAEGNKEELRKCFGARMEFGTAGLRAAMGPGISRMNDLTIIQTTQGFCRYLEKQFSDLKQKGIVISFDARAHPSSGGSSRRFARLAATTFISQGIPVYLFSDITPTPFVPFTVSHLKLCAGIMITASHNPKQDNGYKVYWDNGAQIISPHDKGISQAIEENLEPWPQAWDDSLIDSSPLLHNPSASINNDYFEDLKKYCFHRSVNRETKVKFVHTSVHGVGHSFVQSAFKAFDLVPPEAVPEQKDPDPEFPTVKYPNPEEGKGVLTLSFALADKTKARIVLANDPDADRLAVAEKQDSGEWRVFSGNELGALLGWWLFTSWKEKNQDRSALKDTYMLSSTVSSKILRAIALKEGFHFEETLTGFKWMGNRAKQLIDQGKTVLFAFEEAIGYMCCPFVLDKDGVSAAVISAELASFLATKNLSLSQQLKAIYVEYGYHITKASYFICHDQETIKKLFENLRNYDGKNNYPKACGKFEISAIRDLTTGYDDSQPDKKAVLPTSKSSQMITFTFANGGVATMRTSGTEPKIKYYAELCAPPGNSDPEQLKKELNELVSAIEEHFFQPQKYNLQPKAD
UniProt Q96GC9: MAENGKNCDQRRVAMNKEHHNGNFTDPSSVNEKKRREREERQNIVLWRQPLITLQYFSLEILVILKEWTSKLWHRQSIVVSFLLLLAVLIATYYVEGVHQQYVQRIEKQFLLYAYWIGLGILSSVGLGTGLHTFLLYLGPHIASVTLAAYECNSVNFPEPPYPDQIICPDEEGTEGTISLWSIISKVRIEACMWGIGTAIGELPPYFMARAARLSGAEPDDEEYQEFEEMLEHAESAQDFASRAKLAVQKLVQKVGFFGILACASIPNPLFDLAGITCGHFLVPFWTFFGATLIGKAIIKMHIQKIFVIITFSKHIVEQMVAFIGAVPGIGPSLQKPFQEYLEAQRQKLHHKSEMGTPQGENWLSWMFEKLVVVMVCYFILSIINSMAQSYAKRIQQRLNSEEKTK
UniProt Q96T58, whole entry: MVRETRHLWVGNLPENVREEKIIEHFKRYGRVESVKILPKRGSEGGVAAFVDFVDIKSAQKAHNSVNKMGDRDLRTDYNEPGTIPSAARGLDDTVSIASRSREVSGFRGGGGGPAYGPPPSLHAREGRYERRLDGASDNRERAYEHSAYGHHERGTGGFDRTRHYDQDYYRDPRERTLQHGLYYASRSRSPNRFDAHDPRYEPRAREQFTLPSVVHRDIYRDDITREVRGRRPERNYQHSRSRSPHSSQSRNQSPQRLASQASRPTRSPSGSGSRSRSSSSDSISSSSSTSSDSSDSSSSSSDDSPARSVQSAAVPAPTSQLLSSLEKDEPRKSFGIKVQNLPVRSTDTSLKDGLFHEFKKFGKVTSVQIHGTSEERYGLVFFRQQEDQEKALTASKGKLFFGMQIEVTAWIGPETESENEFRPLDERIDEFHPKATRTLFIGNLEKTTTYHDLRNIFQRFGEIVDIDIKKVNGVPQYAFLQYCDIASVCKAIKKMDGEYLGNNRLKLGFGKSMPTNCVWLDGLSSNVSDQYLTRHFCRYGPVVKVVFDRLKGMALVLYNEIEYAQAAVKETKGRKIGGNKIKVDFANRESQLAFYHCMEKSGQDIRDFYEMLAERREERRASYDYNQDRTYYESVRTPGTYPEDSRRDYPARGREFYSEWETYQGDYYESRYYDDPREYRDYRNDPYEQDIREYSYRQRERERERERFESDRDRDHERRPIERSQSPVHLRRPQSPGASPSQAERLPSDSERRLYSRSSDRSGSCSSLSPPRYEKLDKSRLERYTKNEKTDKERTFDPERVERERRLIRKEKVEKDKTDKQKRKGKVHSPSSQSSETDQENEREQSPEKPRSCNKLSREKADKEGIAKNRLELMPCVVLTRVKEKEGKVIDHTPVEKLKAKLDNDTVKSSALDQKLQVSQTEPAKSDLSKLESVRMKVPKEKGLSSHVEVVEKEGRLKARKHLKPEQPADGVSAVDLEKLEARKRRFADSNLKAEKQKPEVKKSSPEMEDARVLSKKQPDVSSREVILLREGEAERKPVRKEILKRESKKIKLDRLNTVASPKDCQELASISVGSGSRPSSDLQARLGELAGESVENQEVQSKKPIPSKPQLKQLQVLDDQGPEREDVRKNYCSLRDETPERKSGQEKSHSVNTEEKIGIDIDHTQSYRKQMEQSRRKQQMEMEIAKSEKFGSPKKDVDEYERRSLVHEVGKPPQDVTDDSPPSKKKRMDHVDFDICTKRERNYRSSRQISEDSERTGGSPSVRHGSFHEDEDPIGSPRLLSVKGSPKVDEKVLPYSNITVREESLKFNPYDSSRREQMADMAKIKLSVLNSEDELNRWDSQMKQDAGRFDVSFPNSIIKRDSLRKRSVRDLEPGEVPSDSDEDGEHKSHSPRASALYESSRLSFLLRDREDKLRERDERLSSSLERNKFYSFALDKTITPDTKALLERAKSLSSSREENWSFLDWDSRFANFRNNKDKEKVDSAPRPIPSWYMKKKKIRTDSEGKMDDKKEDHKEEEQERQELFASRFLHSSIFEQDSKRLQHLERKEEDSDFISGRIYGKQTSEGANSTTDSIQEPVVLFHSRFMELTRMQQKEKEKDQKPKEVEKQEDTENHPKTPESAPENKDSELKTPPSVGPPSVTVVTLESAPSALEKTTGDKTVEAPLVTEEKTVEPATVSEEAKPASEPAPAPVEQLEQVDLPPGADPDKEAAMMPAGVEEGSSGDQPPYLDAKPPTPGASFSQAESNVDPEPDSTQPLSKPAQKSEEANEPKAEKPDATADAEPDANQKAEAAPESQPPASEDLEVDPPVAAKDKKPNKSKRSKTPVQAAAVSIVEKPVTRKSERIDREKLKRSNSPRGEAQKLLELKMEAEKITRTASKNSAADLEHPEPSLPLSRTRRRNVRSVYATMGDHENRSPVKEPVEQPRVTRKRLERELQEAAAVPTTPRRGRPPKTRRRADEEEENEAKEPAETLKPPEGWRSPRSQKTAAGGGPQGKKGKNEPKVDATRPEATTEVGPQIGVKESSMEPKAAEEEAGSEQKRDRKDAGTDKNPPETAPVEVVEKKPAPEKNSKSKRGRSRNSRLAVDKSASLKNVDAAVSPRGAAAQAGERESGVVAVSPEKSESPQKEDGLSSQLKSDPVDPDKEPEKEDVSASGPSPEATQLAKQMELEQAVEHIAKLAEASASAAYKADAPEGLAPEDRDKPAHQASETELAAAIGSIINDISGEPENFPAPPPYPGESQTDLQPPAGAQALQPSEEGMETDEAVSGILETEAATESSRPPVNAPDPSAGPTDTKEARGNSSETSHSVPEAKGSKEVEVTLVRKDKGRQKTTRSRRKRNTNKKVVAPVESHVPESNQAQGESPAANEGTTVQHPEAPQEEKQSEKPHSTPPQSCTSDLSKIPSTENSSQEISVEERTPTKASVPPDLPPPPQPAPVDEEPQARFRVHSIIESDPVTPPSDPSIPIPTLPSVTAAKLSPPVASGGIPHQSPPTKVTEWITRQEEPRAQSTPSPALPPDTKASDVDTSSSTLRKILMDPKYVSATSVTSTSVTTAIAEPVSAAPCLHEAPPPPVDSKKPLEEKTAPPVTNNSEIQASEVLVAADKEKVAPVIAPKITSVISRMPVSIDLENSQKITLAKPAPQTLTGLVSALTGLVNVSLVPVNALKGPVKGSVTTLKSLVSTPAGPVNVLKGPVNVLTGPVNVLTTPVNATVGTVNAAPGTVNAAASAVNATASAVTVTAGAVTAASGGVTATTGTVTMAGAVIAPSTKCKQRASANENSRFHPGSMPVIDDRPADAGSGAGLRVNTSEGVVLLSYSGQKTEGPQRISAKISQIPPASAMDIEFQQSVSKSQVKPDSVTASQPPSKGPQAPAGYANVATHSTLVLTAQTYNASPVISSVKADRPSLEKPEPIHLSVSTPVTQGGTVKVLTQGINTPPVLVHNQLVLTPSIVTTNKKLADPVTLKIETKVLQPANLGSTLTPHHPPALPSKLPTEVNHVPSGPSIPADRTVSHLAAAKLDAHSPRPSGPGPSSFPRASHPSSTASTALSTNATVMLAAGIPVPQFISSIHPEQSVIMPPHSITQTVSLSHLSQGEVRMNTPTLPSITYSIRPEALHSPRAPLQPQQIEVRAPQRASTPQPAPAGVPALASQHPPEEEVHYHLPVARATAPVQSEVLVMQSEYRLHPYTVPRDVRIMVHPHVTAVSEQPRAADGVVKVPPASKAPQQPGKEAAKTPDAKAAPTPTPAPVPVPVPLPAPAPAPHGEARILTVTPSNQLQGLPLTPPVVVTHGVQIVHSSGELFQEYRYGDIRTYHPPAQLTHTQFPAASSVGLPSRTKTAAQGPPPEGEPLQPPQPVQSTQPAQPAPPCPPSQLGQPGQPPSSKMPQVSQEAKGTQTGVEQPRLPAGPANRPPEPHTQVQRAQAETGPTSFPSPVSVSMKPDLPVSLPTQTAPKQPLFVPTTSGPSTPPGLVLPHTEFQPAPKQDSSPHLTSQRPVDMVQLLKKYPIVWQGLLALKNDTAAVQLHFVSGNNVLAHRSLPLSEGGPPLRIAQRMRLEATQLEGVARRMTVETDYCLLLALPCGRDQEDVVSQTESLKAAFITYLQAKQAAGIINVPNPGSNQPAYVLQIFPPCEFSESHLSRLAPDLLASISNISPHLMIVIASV

Compound: Nc1ncnc2c1ncn2[C@@H]1O[C@H](COP(=O)(O)OP(=O)(O)OP(=O)(O)O)[C@@H](O)[C@H]1O [adenosine triphosphate]
Assay: NP40-soluble protein abundance relative to vehicle (solubility fold change) (ratio); higher = more soluble protein in presence of ATP
How it was run: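 Across three independent experiments, values are fold changes against the detergent-processed vehicle for each replicate, based on vsn-normalised intensities. The samples were Jurkat crude lysate treated with eight concentrations (0.1 to 10 mM) for 10 min at room temperature and then 3 min at 37 °C. Lysate was solubilised with 0.8% NP40 and benzonase, ultracentrifuged, and the supernatant analysed by TMT-labelled LC-MS/MS.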

| Target | NP40-soluble protein abundance (concentration: 1mM) | NP40-soluble protein abundance (concentration: 2mM) | NP40-soluble protein abundance (concentration: 4mM) | NP40-soluble protein abundance (concentration: 6mM) | NP40-soluble protein abundance (concentration: 8mM) | NP40-soluble protein abundance (concentration: 10mM) |
| --- | --- | --- | --- | --- | --- | --- |
| UniProt Q96GX9 and related entries | 1.02 ± 0.014 | 0.9958 ± 0.0056 | 1.01 ± 0.023 | 0.973 ± 0.039 | 1 ± 0.022 | 0.9521 ± 0.0063 |
| UniProt Q96EP0 and related entries | 0.9666 ± 0.0096 | 0.986 ± 0.025 | 0.964 ± 0.027 | 0.976 ± 0.059 | 0.964 ± 0.046 | 0.985 ± 0.036 |
| KTI12 (UniProt Q96EK9) | 0.986 ± 0.12 | 1 ± 0.019 | 1.03 ± 0.099 | 0.999 ± 0.065 | 1.05 ± 0.057 | 0.974 ± 0.06 |
| UniProt Q96CU9 and related entries | 1.02 ± 0.075 | 1.03 ± 0.057 | 1.03 ± 0.051 | 0.971 ± 0.075 | 1.08 ± 0.012 | 1.09 ± 0.025 |
| ATAD5 (UniProt Q96QE3) | 1.19 ± 0.09 | 1.23 ± 0.1 | 1.31 ± 0.11 | 1.42 ± 0.27 | 1.23 ± 0.067 | 1.27 ± 0.072 |
| GCC1 (UniProt Q96CN9) | 0.95 ± 0.031 | 0.979 ± 0.019 | 0.968 ± 0.033 | 0.984 ± 0.02 | 0.928 ± 0.016 | 0.923 ± 0.025 |
| PTCD3 (UniProt Q96EY7) | 1.02 ± 0.034 | 0.961 ± 0.079 | 0.959 ± 0.096 | 0.88 ± 0.14 | 0.921 ± 0.14 | 0.908 ± 0.12 |
| FAF2 (UniProt Q96CS3) | 0.993 ± 0.044 | 0.985 ± 0.038 | 0.956 ± 0.014 | 1 ± 0.04 | 0.951 ± 0.022 | 0.965 ± 0.027 |
| PWWP2A (UniProt Q96N64) | 1 ± 0.059 | 0.98 ± 0.011 | 1.01 ± 0.044 | 1.02 ± 0.051 | 0.9706 ± 0.0049 | 1 ± 0.064 |
| UniProt Q96BW5 and related entries | 1.02 ± 0.052 | 1.01 ± 0.043 | 0.993 ± 0.044 | 0.96 ± 0.08 | 0.981 ± 0.042 | 0.988 ± 0.047 |
| UniProt Q96RN5 and related entries | 0.958 ± 0.06 | 0.97 ± 0.11 | 0.988 ± 0.073 | 1.01 ± 0.18 | 0.995 ± 0.068 | 0.973 ± 0.11 |
| UniProt Q96N46 and related entries | 0.984 ± 0.038 | 1.02 ± 0.052 | 1.06 ± 0.19 | 1.13 ± 0.17 | 1.13 ± 0.14 | 1.19 ± 0.14 |
| NSL1 (UniProt Q96IY1) | 1.01 ± 0.048 | 0.966 ± 0.017 | 0.937 ± 0.014 | 0.94 ± 0.016 | 0.952 ± 0.035 | 0.955 ± 0.026 |
| C9orf72 (UniProt Q96LT7) | 1.23 ± 0.4 | 0.962 ± 0.12 | 0.928 ± 0.12 | 0.93 ± 0.1 | 0.966 ± 0.17 | 0.981 ± 0.086 |
| RANBP9 (UniProt Q96S59) | 1.024 ± 0.0092 | 0.9622 ± 0.0078 | 0.983 ± 0.012 | 0.93 ± 0.08 | 0.962 ± 0.042 | 0.976 ± 0.054 |
| UniProt Q96SD1 and related entries | 0.945 ± 0.068 | 0.906 ± 0.092 | 0.947 ± 0.026 | 1 ± 0.028 | 0.944 ± 0.051 | 0.939 ± 0.0097 |
| UniProt Q96HH6 and related entries | 1.05 ± 0.068 | 1.01 ± 0.037 | 0.982 ± 0.02 | 0.925 ± 0.055 | 0.977 ± 0.055 | 0.973 ± 0.046 |
| UniProt Q96DZ1 and related entries | 1.02 ± 0.081 | 1.02 ± 0.043 | 0.986 ± 0.06 | 0.98 ± 0.072 | 1.01 ± 0.058 | 0.981 ± 0.041 |
| UniProt Q96JQ2 | 0.858 ± 0.2 | 0.9491 ± 0.0063 | 0.985 ± 0.14 | 0.997 ± 0.081 | 0.897 ± 0.086 | 0.852 ± 0.035 |
| PDXP (UniProt Q96GD0) | 0.957 ± 0.061 | 0.937 ± 0.032 | 0.924 ± 0.047 | 0.885 ± 0.11 | 0.908 ± 0.027 | 0.924 ± 0.042 |
| FAM111A (UniProt Q96PZ2) | 1.22 ± 0.12 | 1.26 ± 0.13 | 1.3 ± 0.11 | 1.36 ± 0.2 | 1.35 ± 0.073 | 1.47 ± 0.18 |
| OMA1 (UniProt Q96E52) | 0.992 ± 0.054 | 1.02 ± 0.068 | 0.995 ± 0.068 | 0.987 ± 0.074 | 0.997 ± 0.12 | 0.978 ± 0.076 |
| UniProt Q96G03 and related entries | 0.991 ± 0.11 | 0.962 ± 0.091 | 0.941 ± 0.067 | 0.909 ± 0.13 | 0.943 ± 0.06 | 0.947 ± 0.075 |
| UniProt Q96EI5 and related entries | 0.919 ± 0.078 | 0.961 ± 0.026 | 0.982 ± 0.047 | 0.935 ± 0.045 | 0.949 ± 0.064 | 0.982 ± 0.02 |
| UniProt Q96FH0 and related entries | 0.902 ± 0.026 | 0.896 ± 0.065 | 1.06 ± 0.084 | 0.94 ± 0.097 | 0.887 ± 0.057 | 0.854 ± 0.028 |
| UniProt Q96Q11 and related entries | 0.963 ± 0.031 | 0.979 ± 0.036 | 0.953 ± 0.031 | 0.967 ± 0.073 | 0.945 ± 0.035 | 0.965 ± 0.019 |
| FBXL8 (UniProt Q96CD0) | 0.963 ± 0.11 | 0.979 ± 0.073 | 1.01 ± 0.079 | 0.966 ± 0.097 | 0.968 ± 0.069 | 0.94 ± 0.035 |
| UniProt Q96GC9 | 0.905 ± 0.074 | 0.913 ± 0.15 | 0.905 ± 0.14 | 0.768 ± 0.044 | 0.903 ± 0.14 | 0.844 ± 0.03 |
| CCNL2 (UniProt Q96S94) | 0.88699 ± 0.00036 | 0.876 ± 0.021 | 0.799 ± 0.029 | 0.844 ± 0.0093 | 0.783 ± 0.012 | 0.861 ± 0.037 |
| SPEN (UniProt Q96T58) | 1.12 ± 0.043 | 1.16 ± 0.053 | 1.2 ± 0.047 | 1.27 ± 0.078 | 1.25 ± 0.018 | 1.3 ± 0.022 |

Taken from the results shown for reference:

| Target | NP40-soluble protein abundance (concentration: 1mM) | NP40-soluble protein abundance (concentration: 2mM) | NP40-soluble protein abundance (concentration: 4mM) | NP40-soluble protein abundance (concentration: 6mM) | NP40-soluble protein abundance (concentration: 8mM) | NP40-soluble protein abundance (concentration: 10mM) |
| --- | --- | --- | --- | --- | --- | --- |
| PWWP2A (UniProt Q96N64) | 1 ± 0.059 | 0.98 ± 0.011 | 1.01 ± 0.044 | 1.02 ± 0.051 | 0.9706 ± 0.0049 | 1 ± 0.064 |
| UniProt Q96BW5 and related entries | 1.02 ± 0.052 | 1.01 ± 0.043 | 0.993 ± 0.044 | 0.96 ± 0.08 | 0.981 ± 0.042 | 0.988 ± 0.047 |
| UniProt Q96RN5 and related entries | 0.958 ± 0.06 | 0.97 ± 0.11 | 0.988 ± 0.073 | 1.01 ± 0.18 | 0.995 ± 0.068 | 0.973 ± 0.11 |
| UniProt Q96N46 and related entries | 0.984 ± 0.038 | 1.02 ± 0.052 | 1.06 ± 0.19 | 1.13 ± 0.17 | 1.13 ± 0.14 | 1.19 ± 0.14 |
| NSL1 (UniProt Q96IY1) | 1.01 ± 0.048 | 0.966 ± 0.017 | 0.937 ± 0.014 | 0.94 ± 0.016 | 0.952 ± 0.035 | 0.955 ± 0.026 |
| C9orf72 (UniProt Q96LT7) | 1.23 ± 0.4 | 0.962 ± 0.12 | 0.928 ± 0.12 | 0.93 ± 0.1 | 0.966 ± 0.17 | 0.981 ± 0.086 |
| RANBP9 (UniProt Q96S59) | 1.024 ± 0.0092 | 0.9622 ± 0.0078 | 0.983 ± 0.012 | 0.93 ± 0.08 | 0.962 ± 0.042 | 0.976 ± 0.054 |
| UniProt Q96SD1 and related entries | 0.945 ± 0.068 | 0.906 ± 0.092 | 0.947 ± 0.026 | 1 ± 0.028 | 0.944 ± 0.051 | 0.939 ± 0.0097 |
